Percent effect of library compounds

Source: ChEMBL document CHEMBL3988442, “University of Dundee, Small-Polar-MMV Screening Library” (2021).

The filed quantity is “Percent Effect” (%).
How 0% and 100% were set is not recorded. Most values in the screen are low, and negative values occur.
Compounds were drawn at random from those tested, without regard to their results.

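Assay of Toxoplasma gondii numbers, read through their beta-galactosidase reporter with a colour substrate. Concentration: 50 µM. The record gives no direction; the compounds picked for IC50 retests had high values, so higher reads as fewer parasites. Of about 18,000 compounds tested this way, about 170 (0.94%) reached 50% or more in at least one test.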

| # | structure | effect |
|---|---|---|
| 1 | `Cc1nnc2n1CCC(NC(=O)c1cnccn1)CC2` (stereo unspecified) | 2.489% |
| 2 | `CCCC(C)(O)CNC(=O)c1cccc2c1OCCO2` (stereo unspecified) | 18.29% |
| 3 | `O=C(NC1CCNCC1)c1cc2ccccc2o1` | 6.438% |
| 4 | `COc1ccc(C(=O)NC2=NCCS2)c(O)c1` | -4.007% |
| 5 | `O=C(CNc1cccc(CO)c1)NCc1ccc(Cl)s1` | 21.63% |
| 6 | `COc1ccc(NC(=O)CCn2ccnc2)cc1` | -7.989% |
| 7 | `Cc1nn(CCO)c(NCc2ccc(F)cc2)c1C` | -1.891% |
| 8 | `CCC(C)NC(=O)COC(=O)c1c(C)nsc1NC` (stereo unspecified) | -15.46% |
| 9 | `Cc1nc(O)c(C(=O)N2CCn3cnnc3C2)cc1Br` | 2.125% |
| 10 | `O=C(Cn1cccnc1=O)N1[C@H]2CCNC[C@@H]1CC2` | -6.341% |
| 11 | `CCC(NC(=O)COc1cccnc1)c1ccnn1C` (stereo unspecified) | 1.309% |
| 12 | `CS(=O)(=O)NCCNC(=O)NCc1ccccc1F` | -6.96% |
| 13 | `CSCc1noc(CN2CCC(=O)NCC2C)n1` (stereo unspecified) | -8.799% |
| 14 | `NCc1cccc(CN2CCCC2=O)c1` | -4.942% |
| 15 | `CN1CC(C(=O)N2CCOc3ccccc3C2)CC1=O` (stereo unspecified) | 29.87% |
| 16 | `O=C(NCC1(O)CCNC1)Nc1ccc(F)c(F)c1` (stereo unspecified) | -1.459% |
| 17 | `CCC(O)CN1CCN(C(=O)c2cccn2C)CC1` (stereo unspecified) | 4.36% |
| 18 | `CN1CCC(CN(C)Cc2cncs2)C1` (stereo unspecified) | 6.851% |
| 19 | `CN(C)CCC(N)c1ccccc1` (stereo unspecified) | 0.975% |
| 20 | `O=C(NC1CCCc2[nH]c(=O)ccc21)c1cc(Br)c[nH]1` (stereo unspecified) | 33.46% |
| 21 | `CCOCCC(=O)NCc1c(C)ncc2c1CCNC2` | -4.951% |
| 22 | `Cc1ccc(N)c(C)n1` | 4.322% |
| 23 | `Cc1cc(C)c(C(=O)NCCc2ccncc2)c(=O)[nH]1` | 5.965% |
| 24 | `CCCC(=O)Nc1ccc(N2CCN(CC)CC2)cc1` | -4.935% |
| 25 | `NCCNS(=O)(=O)c1cccc2nsnc12` | 4.976% |
| 26 | `CCn1ncnc1CN1C[C@H](C2CC2)[C@@H](N)C1` | -2.415% |
| 27 | `Cc1nc(C(=O)NC(C)C(C)C)ccc1C#N` (stereo unspecified) | 13.42% |
| 28 | `CCn1cc(CN2CCCN(C(=O)CSC)CC2)cn1` | -11.57% |
| 29 | `CC(=O)c1ccn(C)n1` | -41.47% |
| 30 | `Cc1ccnc(NC(=O)CNC(=O)c2ccccc2)c1` | -5.543% |
| 31 | `CCNS(=O)(=O)C1CCN(c2ccncc2Cl)C1` (stereo unspecified) | -29.45% |
| 32 | `CC(=O)NCc1ccc(C(=O)Nc2ccccn2)cc1` | -9.695% |
| 33 | `CCn1cc(CNC(=O)[C@H](CCSC)NC(C)=O)cn1` | -15.75% |
| 34 | `CN(Cc1cccc(O)c1)C(=O)c1cc[nH]n1` | -10.83% |
| 35 | `NCCNS(=O)(=O)c1cccc(OC(F)(F)F)c1` | -4.682% |
| 36 | `CCOc1ccc(Cl)cc1CNCCNCC(C)O` (stereo unspecified) | -3.838% |
| 37 | `CCN1CCN(C(=O)c2cccc(C)c2O)CC1` | -6.892% |
| 38 | `CC(C)[C@@H](CCN)NC(=O)OC(C)(C)C` | -12.35% |
| 39 | `COc1cc(C)c(C(=O)N(C)C)cc1OC` | 5.349% |
| 40 | `COc1ccc2nc(CCNC(=O)CCSC)[nH]c2c1` | 8.956% |
| 41 | `CC(C)NC(=O)CNC(=O)c1cc2sccc2[nH]1` | -14.85% |
| 42 | `NC(=O)CCSCc1csc(-c2ccco2)n1` | -19.75% |
| 43 | `CC(CC(=O)c1cccs1)NC(=O)Cn1cnnn1` (stereo unspecified) | -4.655% |
| 44 | `CN(C)c1ncccc1CNC(=O)C1CCOCC1` | 3.135% |
| 45 | `O=S1(=O)CCN(c2ccnc3cc(Cl)ccc23)CC1` | 31.06% |
| 46 | `O=C1NC(c2ccccc2)CO1` (stereo unspecified) | 7.567% |
| 47 | `CC1CCCCN(CCC(=O)N2CCN(C)CC2)C1` (stereo unspecified) | -11.12% |
| 48 | `CC1(C)CCC(CO)O1` (stereo unspecified) | 8.354% |
| 49 | `CN(C(=O)[C@@H](N)Cc1ccccc1)C1CCCC1` | 9.418% |
| 50 | `CNC(=O)c1cccnc1N(C)CC(C)(C)O` | 20.09% |
| 51 | `COC(=O)c1sc(N)nc1C` | 6.02% |
| 52 | `COC(=O)Cn1ccc(=O)c2cc(Cl)ccc21` | 2.929% |
| 53 | `CO[C@H]1CNCC1NC(=O)Cc1ccc(F)cc1F` (stereo partly specified) | 5.965% |
| 54 | `CC(OC(=O)Cn1cnc2ccccc2c1=O)C(N)=O` (stereo unspecified) | -0.3053% |
| 55 | `O=C(CSc1nnc(NCc2ccco2)s1)NC1CC1` | -0.2181% |
| 56 | `COc1ccccc1CCNC(=O)c1ccnn1C` | -6.83% |
| 57 | `CC(C)(C)OC(=O)N1CC2(C1)NCCc1[nH]cnc12` | -10.11% |
| 58 | `CCc1ccc(OCn2cc(N)cn2)cc1` | -35.13% |
| 59 | `CCc1nccn1CCC(=O)N1C[C@@H](N)C[C@H]1C(=O)O` | 5.8% |
| 60 | `NCCCn1cc(CO)nn1` | 1.304% |
| 61 | `CCNS(=O)(=O)CCNC(=O)c1cc(C)ccc1O` | 1.872% |
| 62 | `c1cc(-c2ccnc(N3CCOCC3)n2)ccn1` | 10.15% |
| 63 | `CN(CC(N)=O)CC(=O)N(C)Cc1cc(Br)cs1` | -4.331% |
| 64 | `Cc1nc(C)c(C(=O)N(C)c2ccc3c(c2)OCO3)o1` | 3.939% |
| 65 | `CC(NC(=O)C1CCNCC1)c1cccc(F)c1` (stereo unspecified) | 17.33% |
| 66 | `CN(CCCNS(N)(=O)=O)c1ccccc1F` | 1.628% |
| 67 | `Cc1cn2c(n1)CCC(NC(=O)COCC(F)(F)F)C2` (stereo unspecified) | -6.021% |
| 68 | `CC(C)c1nc(CN(C)C(=O)c2cccc(N)n2)no1` | -2.764% |
| 69 | `NS(=O)(=O)CC1CCCN1Cc1cccc(Br)c1` (stereo unspecified) | 1.827% |
| 70 | `O=C(OCc1cc(=O)n2ccsc2n1)c1ccccc1` | 20.92% |
| 71 | `OCc1nnc2n1N=C(c1ccc(Cl)cc1)CS2` | -7.844% |
| 72 | `COCCCNC(=O)CSc1ccc2ccccc2n1` | -1.546% |
| 73 | `CCCNC(=O)c1ccc2c(c1)CC(=O)N2C` | -18.91% |
| 74 | `CCN1CCCCC1c1nc(-c2ccccn2)no1` (stereo unspecified) | -8.455% |
| 75 | `CNC[C@@H]1C[C@@H](O)CN1` | -11.15% |
| 76 | `O=C(CSc1nncs1)NCC1CCCO1` (stereo unspecified) | -6.308% |
| 77 | `Cc1nn(C)c(C)c1NC(=O)N1CCSCC1` | -12.54% |
| 78 | `O=C(Nc1nccs1)c1csnn1` | 2.813% |

For reference, 5 entries once more:

- CCCNC(=O)c1ccc2c(c1)CC(=O)N2C | -18.91%
- CN(Cc1cccc(O)c1)C(=O)c1cc[nH]n1 | -10.83%
- CCC(C)NC(=O)COC(=O)c1c(C)nsc1NC (stereo unspecified) | -15.46%
- CN(C)c1ncccc1CNC(=O)C1CCOCC1 | 3.135%
- CCNS(=O)(=O)CCNC(=O)c1cc(C)ccc1O | 1.872%